Measured values as given in paper PMC11628327.
No constants are given. Whether binding was seen depends on the method and setting. Binding seen in cells or lysates may run through a third protein. A result given as binding can be weak or reduced; the word gives no strength.

By UniProt entry, the sequences of proteins in these tests, tags left out. Where a name states a change or a piece, a line headed by the entry shows the natural chain unless it says otherwise.
UniProt Q9R1E0: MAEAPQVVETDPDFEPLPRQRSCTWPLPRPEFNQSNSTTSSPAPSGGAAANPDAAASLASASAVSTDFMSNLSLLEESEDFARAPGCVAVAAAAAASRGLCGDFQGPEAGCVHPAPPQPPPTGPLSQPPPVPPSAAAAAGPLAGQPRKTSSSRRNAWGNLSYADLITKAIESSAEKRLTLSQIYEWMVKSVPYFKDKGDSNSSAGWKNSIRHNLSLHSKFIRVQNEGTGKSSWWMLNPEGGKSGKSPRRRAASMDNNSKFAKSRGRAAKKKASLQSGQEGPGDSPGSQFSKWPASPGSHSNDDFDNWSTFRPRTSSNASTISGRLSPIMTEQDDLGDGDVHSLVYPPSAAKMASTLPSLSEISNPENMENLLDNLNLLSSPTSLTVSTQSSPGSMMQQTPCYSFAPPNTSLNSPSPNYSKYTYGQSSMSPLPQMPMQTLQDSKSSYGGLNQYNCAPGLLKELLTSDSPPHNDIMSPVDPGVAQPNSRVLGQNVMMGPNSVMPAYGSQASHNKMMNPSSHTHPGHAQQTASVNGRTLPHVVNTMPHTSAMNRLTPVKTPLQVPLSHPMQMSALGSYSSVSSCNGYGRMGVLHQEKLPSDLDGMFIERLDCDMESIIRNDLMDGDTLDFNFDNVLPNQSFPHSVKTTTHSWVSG
UniProt P40763: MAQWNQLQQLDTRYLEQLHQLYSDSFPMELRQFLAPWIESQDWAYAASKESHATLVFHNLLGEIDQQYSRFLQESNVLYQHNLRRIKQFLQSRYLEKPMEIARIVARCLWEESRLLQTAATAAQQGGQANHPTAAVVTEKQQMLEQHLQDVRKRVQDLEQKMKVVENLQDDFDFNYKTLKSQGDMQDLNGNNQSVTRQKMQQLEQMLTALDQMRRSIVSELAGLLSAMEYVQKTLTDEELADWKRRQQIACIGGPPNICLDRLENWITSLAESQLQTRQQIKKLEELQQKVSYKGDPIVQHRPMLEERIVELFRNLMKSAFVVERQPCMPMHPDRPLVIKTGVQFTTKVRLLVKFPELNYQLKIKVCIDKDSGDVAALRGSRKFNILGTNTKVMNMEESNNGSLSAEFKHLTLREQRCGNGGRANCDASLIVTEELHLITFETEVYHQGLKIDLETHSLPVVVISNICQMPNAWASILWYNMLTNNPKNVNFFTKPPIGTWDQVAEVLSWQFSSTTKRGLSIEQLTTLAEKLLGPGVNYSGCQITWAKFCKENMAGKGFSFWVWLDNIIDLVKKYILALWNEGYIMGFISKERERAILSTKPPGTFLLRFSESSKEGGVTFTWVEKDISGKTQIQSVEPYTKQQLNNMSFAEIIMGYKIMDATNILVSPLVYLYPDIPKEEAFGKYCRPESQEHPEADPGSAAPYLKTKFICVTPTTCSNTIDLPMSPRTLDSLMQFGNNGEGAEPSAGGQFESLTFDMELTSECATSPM
UniProt P42227: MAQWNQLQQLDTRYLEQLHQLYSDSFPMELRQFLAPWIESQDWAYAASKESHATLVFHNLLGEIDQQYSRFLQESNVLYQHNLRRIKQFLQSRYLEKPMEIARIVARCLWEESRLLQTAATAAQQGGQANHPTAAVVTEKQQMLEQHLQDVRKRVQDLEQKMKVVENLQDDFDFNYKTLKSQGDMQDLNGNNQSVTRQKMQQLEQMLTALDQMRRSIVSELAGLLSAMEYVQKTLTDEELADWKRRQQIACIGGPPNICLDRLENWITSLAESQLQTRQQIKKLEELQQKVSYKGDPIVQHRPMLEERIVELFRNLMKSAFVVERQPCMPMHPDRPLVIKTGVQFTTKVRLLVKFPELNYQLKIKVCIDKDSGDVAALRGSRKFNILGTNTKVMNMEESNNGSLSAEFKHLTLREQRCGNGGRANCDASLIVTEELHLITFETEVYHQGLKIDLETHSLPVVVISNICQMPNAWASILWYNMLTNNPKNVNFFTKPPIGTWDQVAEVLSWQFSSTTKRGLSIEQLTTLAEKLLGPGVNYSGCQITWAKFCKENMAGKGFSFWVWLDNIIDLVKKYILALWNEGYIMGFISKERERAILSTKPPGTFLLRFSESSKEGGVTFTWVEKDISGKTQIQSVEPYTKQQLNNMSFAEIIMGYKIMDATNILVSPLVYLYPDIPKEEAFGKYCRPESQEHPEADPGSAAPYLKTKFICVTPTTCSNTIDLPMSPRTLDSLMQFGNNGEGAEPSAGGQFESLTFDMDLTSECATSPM
UniProt P31749: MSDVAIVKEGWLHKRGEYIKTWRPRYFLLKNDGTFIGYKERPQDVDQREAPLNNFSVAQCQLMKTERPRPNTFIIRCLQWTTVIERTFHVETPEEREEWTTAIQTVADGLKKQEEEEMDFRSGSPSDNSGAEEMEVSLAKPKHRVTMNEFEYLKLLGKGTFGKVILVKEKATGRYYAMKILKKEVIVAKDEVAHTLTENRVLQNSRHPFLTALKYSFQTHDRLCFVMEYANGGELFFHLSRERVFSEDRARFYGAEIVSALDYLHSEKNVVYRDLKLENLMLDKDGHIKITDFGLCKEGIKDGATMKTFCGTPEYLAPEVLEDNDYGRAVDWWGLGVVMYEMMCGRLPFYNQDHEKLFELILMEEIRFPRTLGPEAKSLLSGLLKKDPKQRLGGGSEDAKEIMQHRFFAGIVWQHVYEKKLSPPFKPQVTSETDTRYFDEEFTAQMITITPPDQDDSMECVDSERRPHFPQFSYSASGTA
UniProt Q19S50: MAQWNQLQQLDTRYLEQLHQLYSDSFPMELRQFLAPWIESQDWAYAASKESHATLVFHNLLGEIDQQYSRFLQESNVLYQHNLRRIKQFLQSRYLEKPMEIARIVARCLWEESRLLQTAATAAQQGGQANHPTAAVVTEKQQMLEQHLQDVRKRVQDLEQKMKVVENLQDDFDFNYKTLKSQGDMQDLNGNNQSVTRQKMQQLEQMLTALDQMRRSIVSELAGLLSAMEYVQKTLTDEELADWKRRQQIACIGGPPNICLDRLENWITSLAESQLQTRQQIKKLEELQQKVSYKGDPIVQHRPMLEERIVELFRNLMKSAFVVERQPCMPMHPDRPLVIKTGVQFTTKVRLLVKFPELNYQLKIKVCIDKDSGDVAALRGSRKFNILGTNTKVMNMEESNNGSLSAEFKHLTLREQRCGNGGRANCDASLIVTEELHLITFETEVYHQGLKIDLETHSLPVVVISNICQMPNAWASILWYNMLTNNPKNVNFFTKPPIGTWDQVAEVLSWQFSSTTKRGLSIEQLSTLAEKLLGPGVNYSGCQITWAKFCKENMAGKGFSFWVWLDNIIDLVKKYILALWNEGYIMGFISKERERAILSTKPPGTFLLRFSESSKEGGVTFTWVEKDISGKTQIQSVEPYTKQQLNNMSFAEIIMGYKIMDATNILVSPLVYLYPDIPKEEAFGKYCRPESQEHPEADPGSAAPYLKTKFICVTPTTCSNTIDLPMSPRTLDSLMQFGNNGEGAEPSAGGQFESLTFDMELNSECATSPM

Key:
[1] = molecular target: FLAG-tagged FOXO1 mutant lacking the nuclear localization signal (FOXO1-△NLS) (UniProt Q9R1E0); experiment: co-IP; 293T cells, endogenous FOXO1 silenced, FLAG-tagged FOXO1 vectors, hypoxia; cytoplasmic and nuclear fractions; IP, immunoblot
[2] = molecular target: FLAG-tagged FOXO1 mutant lacking the nuclear localization signal (FOXO1-△NLS) (UniProt Q9R1E0); experiment: co-IP; NIH/3T3 cells, endogenous FOXO1 silenced, FLAG-tagged FOXO1 vectors, hypoxia; cytoplasmic and nuclear fractions; IP, immunoblot
[3] = molecular target: FLAG-tagged FOXO1 mutant lacking the nuclear localization signal (FOXO1-△NLS) (UniProt Q9R1E0); experiment: co-IP; porcine GCs, FOXO1-siRNA 12 h, then FLAG-tagged FOXO1 vectors, hypoxia (1% O2) 12 h; cytoplasmic and nuclear fractions; IP with anti-FLAG-tag, immunoblot

binding [1]	Substance	other results
binds	STAT3 (endogenous, 293T cells) (from UniProt P40763 1-770)	
	STAT3 (endogenous, NIH/3T3 cells) (from UniProt P42227 1-770)	binding [2]: binds
binds	AKT1 (endogenous, 293T cells) (from UniProt P31749 1-480)	
	STAT3 (endogenous, porcine granulosa cells) (from UniProt Q19S50 1-770)	binding [3]: binds
